This is one part of the list.
How the values were obtained:
Test in all cases: log2 fold change, soluble protein after heating vs DMSO (PISA); higher = thermal stabilisation; K562 cells, 10 uM, 30 min; active = over 0.2 and 3.5 SD of the protein, either way, in both replicates (recomputed)
[1] = compound: C1=CC=C(C=C1)[C@H](COC2=CC3=C(C=C2)NC(=O)N3)NC(=O)C4=CC=CN(C4=O)CC5=CC(=C(C=C5)F)F
Summary of the method: (§1)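 K562 cells at 2×10^6 cells/mL were exposed to 10 μM compound for 30 min, then aliquots were heated for 3 min across 48°C-58°C, pooled, and extracted in PBS containing 0.5% NP-40 at 4°C. The supernatant after 21,000xg for 90 min was taken as soluble protein and measured by TMTpro 16plex LC-MS/MS with channel sums equalised. Thermal stability is reported relative to control samples, with values from duplicates. Fold changes are given on a log2 scale.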

Chains of the proteins cited; added tags and fusions are not shown. Lines headed by an entry give the natural chain unless they say otherwise; changes in a name come on top.
UniProt O95707: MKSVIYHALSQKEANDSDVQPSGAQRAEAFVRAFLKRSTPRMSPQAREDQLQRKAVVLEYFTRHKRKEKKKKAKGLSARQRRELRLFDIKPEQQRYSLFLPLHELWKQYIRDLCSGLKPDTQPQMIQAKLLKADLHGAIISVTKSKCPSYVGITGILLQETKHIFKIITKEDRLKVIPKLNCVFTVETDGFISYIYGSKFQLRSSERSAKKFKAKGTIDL
UniProt Q9BUI4: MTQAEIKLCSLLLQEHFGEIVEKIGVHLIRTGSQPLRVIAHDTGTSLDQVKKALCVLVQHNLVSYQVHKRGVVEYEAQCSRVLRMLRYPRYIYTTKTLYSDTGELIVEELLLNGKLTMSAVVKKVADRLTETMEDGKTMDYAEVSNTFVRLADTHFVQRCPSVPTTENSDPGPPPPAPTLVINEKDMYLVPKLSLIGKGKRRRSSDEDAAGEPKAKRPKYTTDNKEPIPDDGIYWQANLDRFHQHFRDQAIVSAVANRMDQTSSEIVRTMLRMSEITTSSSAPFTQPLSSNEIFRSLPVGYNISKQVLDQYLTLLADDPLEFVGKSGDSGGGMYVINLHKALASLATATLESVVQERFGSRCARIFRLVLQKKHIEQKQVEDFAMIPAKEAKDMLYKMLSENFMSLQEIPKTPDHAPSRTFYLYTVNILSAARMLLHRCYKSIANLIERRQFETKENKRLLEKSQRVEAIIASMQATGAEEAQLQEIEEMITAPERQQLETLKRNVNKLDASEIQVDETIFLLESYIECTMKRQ
UniProt Q15165: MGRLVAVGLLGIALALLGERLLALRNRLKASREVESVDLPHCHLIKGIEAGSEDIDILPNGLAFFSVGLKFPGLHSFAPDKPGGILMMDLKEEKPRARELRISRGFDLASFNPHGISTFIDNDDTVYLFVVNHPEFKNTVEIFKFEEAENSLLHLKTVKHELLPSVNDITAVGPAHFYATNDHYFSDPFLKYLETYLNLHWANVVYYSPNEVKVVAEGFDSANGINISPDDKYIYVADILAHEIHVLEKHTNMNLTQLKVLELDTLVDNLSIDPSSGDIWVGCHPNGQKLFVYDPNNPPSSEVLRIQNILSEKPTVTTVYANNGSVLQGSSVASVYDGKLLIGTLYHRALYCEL
UniProt Q96HA1, whole entry, looked up: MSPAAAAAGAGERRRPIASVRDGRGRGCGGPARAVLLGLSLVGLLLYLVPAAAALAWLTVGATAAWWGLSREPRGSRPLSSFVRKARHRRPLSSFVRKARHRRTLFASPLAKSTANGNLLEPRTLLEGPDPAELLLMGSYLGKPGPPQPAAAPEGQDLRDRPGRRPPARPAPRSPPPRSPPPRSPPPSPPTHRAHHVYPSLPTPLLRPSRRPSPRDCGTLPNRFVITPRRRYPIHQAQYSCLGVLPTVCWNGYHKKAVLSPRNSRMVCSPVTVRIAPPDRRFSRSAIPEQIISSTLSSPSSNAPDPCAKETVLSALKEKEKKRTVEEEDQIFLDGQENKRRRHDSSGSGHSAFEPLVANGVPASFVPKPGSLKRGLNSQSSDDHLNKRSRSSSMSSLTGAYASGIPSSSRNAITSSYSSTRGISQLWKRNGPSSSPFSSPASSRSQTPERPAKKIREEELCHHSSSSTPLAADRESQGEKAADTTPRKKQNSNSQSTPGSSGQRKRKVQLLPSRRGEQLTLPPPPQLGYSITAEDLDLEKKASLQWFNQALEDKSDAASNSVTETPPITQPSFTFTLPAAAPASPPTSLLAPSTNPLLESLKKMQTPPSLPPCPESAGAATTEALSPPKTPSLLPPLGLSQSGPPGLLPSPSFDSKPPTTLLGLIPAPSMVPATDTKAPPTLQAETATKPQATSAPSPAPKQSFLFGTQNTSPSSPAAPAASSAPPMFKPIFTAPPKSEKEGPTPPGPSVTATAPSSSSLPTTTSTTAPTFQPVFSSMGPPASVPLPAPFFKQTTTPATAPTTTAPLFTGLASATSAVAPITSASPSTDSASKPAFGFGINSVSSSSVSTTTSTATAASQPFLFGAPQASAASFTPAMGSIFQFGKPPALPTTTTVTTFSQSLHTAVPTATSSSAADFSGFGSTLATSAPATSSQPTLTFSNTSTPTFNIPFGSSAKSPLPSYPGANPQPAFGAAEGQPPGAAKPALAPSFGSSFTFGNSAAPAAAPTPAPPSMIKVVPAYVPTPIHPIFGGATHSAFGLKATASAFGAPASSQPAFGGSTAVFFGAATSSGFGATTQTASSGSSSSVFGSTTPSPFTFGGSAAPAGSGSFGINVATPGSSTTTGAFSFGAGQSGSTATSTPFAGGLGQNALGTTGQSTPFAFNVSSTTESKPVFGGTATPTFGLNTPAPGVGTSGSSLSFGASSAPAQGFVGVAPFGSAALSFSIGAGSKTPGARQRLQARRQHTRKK
UniProt Q9H8W4: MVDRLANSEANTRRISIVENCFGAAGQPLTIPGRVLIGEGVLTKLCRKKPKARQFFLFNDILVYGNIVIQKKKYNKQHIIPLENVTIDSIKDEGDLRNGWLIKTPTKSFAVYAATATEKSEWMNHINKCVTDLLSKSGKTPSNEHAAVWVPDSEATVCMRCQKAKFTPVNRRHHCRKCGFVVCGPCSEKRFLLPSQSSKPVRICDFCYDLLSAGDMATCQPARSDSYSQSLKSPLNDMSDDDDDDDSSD
UniProt A5A3E0, whole entry, looked up: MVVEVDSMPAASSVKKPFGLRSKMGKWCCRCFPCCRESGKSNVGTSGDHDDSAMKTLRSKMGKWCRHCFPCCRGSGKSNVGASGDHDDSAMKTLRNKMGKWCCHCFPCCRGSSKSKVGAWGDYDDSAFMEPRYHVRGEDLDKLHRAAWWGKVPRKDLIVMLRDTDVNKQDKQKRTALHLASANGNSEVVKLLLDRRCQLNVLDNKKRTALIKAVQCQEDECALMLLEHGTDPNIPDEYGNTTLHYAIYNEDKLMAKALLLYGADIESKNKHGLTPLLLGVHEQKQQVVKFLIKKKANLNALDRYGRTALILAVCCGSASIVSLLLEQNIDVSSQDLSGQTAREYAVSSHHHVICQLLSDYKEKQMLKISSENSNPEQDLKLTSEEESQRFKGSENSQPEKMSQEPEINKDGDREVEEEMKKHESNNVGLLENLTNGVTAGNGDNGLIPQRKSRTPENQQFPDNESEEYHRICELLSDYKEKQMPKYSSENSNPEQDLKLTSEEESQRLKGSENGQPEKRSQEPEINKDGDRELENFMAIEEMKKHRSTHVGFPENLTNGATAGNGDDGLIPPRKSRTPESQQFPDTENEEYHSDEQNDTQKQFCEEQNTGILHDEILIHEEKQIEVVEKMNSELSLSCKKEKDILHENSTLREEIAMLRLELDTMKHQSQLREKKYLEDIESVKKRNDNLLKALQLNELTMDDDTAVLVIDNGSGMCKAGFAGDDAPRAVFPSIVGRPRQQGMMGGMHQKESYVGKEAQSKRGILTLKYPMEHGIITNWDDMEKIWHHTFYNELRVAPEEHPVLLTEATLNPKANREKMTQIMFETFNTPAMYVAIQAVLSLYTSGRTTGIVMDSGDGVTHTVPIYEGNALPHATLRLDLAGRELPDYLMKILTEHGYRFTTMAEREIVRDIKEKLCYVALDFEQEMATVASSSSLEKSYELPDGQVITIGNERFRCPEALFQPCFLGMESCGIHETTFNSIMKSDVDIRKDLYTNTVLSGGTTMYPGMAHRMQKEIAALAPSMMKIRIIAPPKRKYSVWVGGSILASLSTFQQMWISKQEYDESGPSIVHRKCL
UniProt P0CAP2, whole entry, looked up: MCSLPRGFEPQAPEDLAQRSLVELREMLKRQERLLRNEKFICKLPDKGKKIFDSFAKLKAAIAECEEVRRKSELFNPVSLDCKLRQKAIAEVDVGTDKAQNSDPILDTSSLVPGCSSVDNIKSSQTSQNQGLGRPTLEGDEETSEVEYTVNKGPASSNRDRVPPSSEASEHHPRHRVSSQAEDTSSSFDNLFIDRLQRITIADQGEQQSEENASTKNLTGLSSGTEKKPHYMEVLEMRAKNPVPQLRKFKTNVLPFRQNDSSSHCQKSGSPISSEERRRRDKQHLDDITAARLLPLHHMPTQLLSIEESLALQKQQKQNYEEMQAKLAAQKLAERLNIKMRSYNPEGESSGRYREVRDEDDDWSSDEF
UniProt O75817: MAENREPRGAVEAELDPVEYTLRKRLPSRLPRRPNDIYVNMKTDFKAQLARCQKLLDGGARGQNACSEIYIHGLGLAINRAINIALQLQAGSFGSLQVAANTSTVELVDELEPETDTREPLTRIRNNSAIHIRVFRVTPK
UniProt P54098: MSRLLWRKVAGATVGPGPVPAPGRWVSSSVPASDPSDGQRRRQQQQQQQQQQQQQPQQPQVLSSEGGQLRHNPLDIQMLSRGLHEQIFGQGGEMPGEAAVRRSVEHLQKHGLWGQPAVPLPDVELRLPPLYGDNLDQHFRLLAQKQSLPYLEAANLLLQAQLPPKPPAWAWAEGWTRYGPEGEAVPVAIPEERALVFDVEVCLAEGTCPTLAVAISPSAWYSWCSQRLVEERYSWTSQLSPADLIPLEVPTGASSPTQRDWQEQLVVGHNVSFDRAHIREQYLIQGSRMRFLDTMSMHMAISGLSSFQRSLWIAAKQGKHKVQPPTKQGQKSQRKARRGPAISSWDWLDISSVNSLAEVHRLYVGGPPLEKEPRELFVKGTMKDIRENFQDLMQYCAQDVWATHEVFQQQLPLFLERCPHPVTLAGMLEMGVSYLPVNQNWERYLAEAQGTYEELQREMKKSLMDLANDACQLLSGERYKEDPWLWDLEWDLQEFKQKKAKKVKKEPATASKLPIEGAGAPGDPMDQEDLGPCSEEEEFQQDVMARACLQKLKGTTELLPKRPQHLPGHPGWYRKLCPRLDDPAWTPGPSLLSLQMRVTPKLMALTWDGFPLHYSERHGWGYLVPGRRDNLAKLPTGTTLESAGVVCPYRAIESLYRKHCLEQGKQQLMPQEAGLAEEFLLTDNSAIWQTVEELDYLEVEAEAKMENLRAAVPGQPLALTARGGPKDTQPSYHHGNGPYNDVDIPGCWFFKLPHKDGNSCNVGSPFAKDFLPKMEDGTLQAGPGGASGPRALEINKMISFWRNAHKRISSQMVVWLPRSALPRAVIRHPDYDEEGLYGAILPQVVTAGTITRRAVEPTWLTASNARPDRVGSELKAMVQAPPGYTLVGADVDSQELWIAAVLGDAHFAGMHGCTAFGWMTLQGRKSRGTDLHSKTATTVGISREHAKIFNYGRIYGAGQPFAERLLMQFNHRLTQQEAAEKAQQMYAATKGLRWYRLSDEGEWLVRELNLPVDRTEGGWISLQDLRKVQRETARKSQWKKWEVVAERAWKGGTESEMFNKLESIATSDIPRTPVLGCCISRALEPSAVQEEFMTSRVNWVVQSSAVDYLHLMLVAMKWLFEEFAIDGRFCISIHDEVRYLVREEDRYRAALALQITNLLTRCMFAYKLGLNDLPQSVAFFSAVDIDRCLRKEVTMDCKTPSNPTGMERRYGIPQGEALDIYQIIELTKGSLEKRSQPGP
UniProt P35813: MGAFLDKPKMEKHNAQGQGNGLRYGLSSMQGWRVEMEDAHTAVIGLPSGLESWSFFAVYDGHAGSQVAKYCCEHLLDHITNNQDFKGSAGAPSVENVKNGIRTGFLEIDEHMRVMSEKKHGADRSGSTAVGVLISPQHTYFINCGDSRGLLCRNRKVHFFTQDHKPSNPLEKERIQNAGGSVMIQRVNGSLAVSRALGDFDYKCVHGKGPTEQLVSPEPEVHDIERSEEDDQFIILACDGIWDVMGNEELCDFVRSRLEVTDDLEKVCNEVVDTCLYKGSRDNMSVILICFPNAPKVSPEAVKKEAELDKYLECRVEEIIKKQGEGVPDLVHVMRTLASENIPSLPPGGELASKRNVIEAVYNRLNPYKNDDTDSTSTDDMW
UniProt P30405: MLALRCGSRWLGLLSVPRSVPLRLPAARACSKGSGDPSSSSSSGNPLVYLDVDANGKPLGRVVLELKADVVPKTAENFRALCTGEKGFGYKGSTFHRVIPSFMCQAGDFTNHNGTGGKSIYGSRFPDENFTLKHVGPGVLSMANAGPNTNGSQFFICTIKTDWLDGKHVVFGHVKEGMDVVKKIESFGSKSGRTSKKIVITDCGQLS
UniProt Q7Z4H8: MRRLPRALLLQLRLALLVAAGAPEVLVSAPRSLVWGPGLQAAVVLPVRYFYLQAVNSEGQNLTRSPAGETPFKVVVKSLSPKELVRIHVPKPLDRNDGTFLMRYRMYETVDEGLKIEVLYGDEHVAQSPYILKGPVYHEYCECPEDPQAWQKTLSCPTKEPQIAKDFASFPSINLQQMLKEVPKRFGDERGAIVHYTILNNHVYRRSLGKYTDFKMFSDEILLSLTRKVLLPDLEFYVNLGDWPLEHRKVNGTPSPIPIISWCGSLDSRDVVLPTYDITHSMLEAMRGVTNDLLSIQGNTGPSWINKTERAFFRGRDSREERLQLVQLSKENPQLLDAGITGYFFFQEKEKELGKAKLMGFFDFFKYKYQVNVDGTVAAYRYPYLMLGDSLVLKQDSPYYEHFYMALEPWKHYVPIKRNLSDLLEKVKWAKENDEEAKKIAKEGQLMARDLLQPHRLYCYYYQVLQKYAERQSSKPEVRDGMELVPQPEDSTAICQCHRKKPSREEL

[2] = compound: CC1=C(SC2=C1C(=N[C@H](C3=NN=C(N32)C)CC(=O)N)C4=CC=C(C=C4)Cl)C
Summary of the method: as §1

[3] = compound: CC1=C2C(=CC=C1)N=C(N(C2=O)C3=CC=CC=C3C)CN4C=NC5=C(N=CN=C54)N
Summary of the method: as §1

[4] = compound: Cc1sc2c(c1C)C(c1ccc(Cl)cc1)=N[C@@H](CC(=O)OC(C)(C)C)c1nnc(C)n1-2
Summary of the method: as §1

[5] = compound: c1ccc([C@@H]2C[C@H]2NC2CCNCC2)cc1
Summary of the method: as §1

Measured: log2 fold change

POTEI (UniProt P0CG38)
inactive: [1] 0.025 | [2] 0.012 | [3] -0.059 | [4] -0.03 | [5] -0.002

PPIL4 (UniProt Q8WUA2)
inactive: [1] 0.012 | [2] -0.022 | [3] 0.036 | [4] 0.039 | [5] 0.016

POP4 (UniProt O95707)
inactive: [1] -0.01 | [2] 0.038 | [3] 0.042 | [4] 0.068 | [5] -0.135

POLR3C (UniProt Q9BUI4)
inactive: [1] -0.008 | [2] 0.021 | [3] 0 | [4] -0.028 | [5] -0.009

PON2 (UniProt Q15165)
inactive: [1] 0.029 | [2] -0.073 | [3] 0.02 | [4] -0.01 | [5] 0.041

Quoted from the listing (2 entries):
POLR3C (UniProt Q9BUI4)
inactive: [1] -0.008 | [2] 0.021 | [3] 0 | [4] -0.028 | [5] -0.009

PON2 (UniProt Q15165)
inactive: [1] 0.029 | [2] -0.073 | [3] 0.02 | [4] -0.01 | [5] 0.041

Carrying on:

POM121 (UniProt Q96HA1)
inactive: [1] 0.023 | [2] -0.033 | [3] 0.026 | [4] 0.054 | [5] -0.002

POLD1 (UniProt P28340)
inactive: [1] 0.017 | [2] 0.019 | [3] 0.094 | [4] 0.048 | [5] 0

PLEKHF2 (UniProt Q9H8W4)
inactive: [1] -0.093 | [2] 0.044 | [3] 0.217 | [4] -0.057 | [5] -0.019

POLR2E (UniProt P19388)
inactive: [1] -0.013 | [2] 0.094 | [3] -0.023 | [4] 0.054 | [5] -0.06

POMGNT1 isoform 2 (UniProt Q8WZA1)
inactive: [1] 0.028 | [2] 0.093 | [3] 0.09 | [4] 0.078 | [5] 0.091

POTEF (UniProt A5A3E0)
inactive: [1] 0.027 | [2] 0.028 | [3] 0.04 | [4] 0.006 | [5] 0.007

PPIA isoform 2 (UniProt P62937)
inactive: [1] -0.248 | [2] 0.061 | [3] 0.2 | [4] -0.026 | [5] 0.075

POLR3B (UniProt Q9NW08)
inactive: [1] -0.035 | [2] -0.02 | [3] 0.078 | [4] 0.04 | [5] -0.046

POLR3K (UniProt Q9Y2Y1)
inactive: [1] -0.009 | [2] -0.008 | [3] -0.029 | [4] 0.021 | [5] 0.056

PPIA (UniProt P62937)
inactive: [1] -0.01 | [2] 0.03 | [3] 0.041 | [4] -0.014 | [5] -0.003

POLR2M (UniProt P0CAP2)
inactive: [1] -0.021 | [2] 0.096 | [3] 0.045 | [4] 0.004 | [5] -0.062

POP7 (UniProt O75817)
inactive: [1] 0.027 | [2] -0.159 | [3] 0.048 | [4] 0.059 | [5] 0.096

POLG (UniProt P54098)
inactive: [1] 0.052 | [2] -0.057 | [3] 0.197 | [4] -0.171 | [5] -0.029

PPM1A isoform 3 (UniProt P35813)
inactive: [1] -0.056 | [2] 0.016 | [3] 0.078 | [4] 0.026 | [5] -0.06

PPIF (UniProt P30405)
inactive: [1] 0.038 | [2] 0.063 | [3] 0.075 | [4] 0.006 | [5] -0.02

POFUT2 (UniProt Q9Y2G5)
inactive: [1] 0.026 | [2] -0.055 | [3] 0.035 | [4] 0.007 | [5] -0.011

POGLUT2 (UniProt Q6UW63)
inactive: [1] 0.037 | [2] -0.045 | [3] -0.001 | [4] 0.013 | [5] 0.001

POGLUT3 (UniProt Q7Z4H8)
inactive: [1] 0.022 | [2] -0.034 | [3] -0.033 | [4] 0.016 | [5] -0.035

PLK1 (UniProt P53350)
inactive: [1] 0.02 | [2] 0.037 | [3] 0.019 | [4] -0.012 | [5] 0.007

Reference: the supplement of paper PMC10849652
